Test results: patent US20260027116A1, “Methods of Treating Chronic Graft-Versus-Host Disease Following Allogeneic Hematopoietic Stem Cell Transplantation” (Kadmon Corporation, LLC, priority 2022, published 2026)
This continues a long series; more values of the same kind are listed elsewhere.

Key:
Type in all cases: in vivo, human
lung function [1] = experiment: Example 1: percent predicted FEV1 change from baseline
Protocol: Change From Baseline in Percent Predicted Forced Expiratory Volume in 1 Second (FEV1) at Each Specified Time Points. FEV1 was the volume of air exhaled from the lungs in the first second of a forced expiration as measured by spirometer. Baseline value was defined as valid and last non-missing value obtained within 28 days prior to participant receiving first study medication. EOT visit was performed within 3 days after the participant's last dose of study drug. […] Analysis was performed on mITT population. Here, ‘number analyzed’=participants with available data for each specified category. Here, ‘O’ in the number analyzed field signifies that none of the participants were available for the analysis at the specified time points.

lung function [2] = experiment: Example 1: percent predicted TLC change from baseline; conditions: mean (SD)
Protocol: Change From Baseline in Percent Predicted Total Lung Capacity (TLC) at Each Specified Time Points. TLC is the volume of air in the lungs upon the maximum effort of inspiration. Baseline value was defined as valid and last non-missing value obtained within 28 days prior to participant receiving first study medication. EOT visit was performed within 3 days after the participant's last dose of study drug. […] Analysis was performed on mITT population. Here, ‘number analyzed’=participants with available data for each specified category. Here, ‘0’ in the number analyzed field signifies that none of the participants were available for the analysis at the specified time points.

lung function [3] = experiment: Example 1: percent predicted FVC change from baseline; conditions: mean (SD)
Protocol: Change From Baseline in Percent Predicted Forced Vital Capacity (FVC) at Each Specified Time Points. FVC was the total amount of air (in liters) exhaled from the lungs during the lung function test measured by spirometer which assessed the change in lung function related to the disease status. Baseline value was defined as valid and last non-missing value obtained within 28 days prior to participant receiving first study medication. EOT visit was performed within 3 days after the participant's last dose of study drug. […] Analysis was performed on mITT population. Here, ‘number analyzed’=participants with available data for each specified category. Here, ‘0’ in the number analyzed field signifies that none of the participants were available for the analysis at the specified time points.

[4] = Cohort 1: 200 mg QD, Cycle 37, Day 1
[5] = Cohort 1: 200 mg QD, Cycle 38, Day 1
[6] = Cohort 1: 200 mg QD, Cycle 39, Day 1
[7] = Cohort 1: 200 mg QD, Cycle 40, Day 1
[8] = Cohort 1: 200 mg QD, Cycle 41, Day 1
[9] = Cohort 1: 200 mg QD, Cycle 43, Day 1
[10] = Cohort 1: 200 mg QD, Cycle 47, Day 1
[11] = Cohort 2: 200 mg BID, Cycle 37, Day 1
[12] = Cohort 2: 200 mg BID, Cycle 39, Day 1
[13] = Cohort 2: 200 mg BID, Cycle 43, Day 1
[14] = Cohort 3: 400 mg QD, Cycle 39, Day 1
[15] = Cohort 3: 400 mg QD, Cycle 43, Day 1
[16] = Cohort 3: 400 mg QD, Cycle 47, Day 1

CC(C)NC(=O)COc1cccc(-c2nc(Nc3ccc4[nH]ncc4c3)c3ccccc3n2)c1 [Belumosudil, 2-{3-[4-(1H-indazol-5-ylamino)-2-quinazolinyl]phenoxy}-N-(propan-2-yl) acetamide]
Change From Baseline in Percent Predicted Forced Expiratory Volume in 1 Second (FEV1), Mean (Standard Deviation) (lung function [1]; Cohort 2: 200 mg BID, Cycle 21, Day 1): 0.0 (—) percent predicted FEV1 | Change From Baseline in Percent Predicted Forced Expiratory Volume in 1 Second (FEV1), Mean (Standard Deviation) (lung function [1]; Cohort 2: 200 mg BID, Cycle 22, Day 1): −11.0 (1.4) percent predicted FEV1 | Change From Baseline in Percent Predicted Forced Expiratory Volume in 1 Second (FEV1), Mean (Standard Deviation) (lung function [1]; Cohort 2: 200 mg BID, Cycle 23, Day 1): −12.5 (4.9) percent predicted FEV1 | Change From Baseline in Percent Predicted Forced Expiratory Volume in 1 Second (FEV1), Mean (Standard Deviation) (lung function [1]; Cohort 2: 200 mg BID, Cycle 24, Day 1): −18.0 (—) percent predicted FEV1 | Change From Baseline in Percent Predicted Forced Expiratory Volume in 1 Second (FEV1), Mean (Standard Deviation) (lung function [1]; Cohort 3: 400 mg QD, Cycle 20, Day 1): 4.0 (10.4) percent predicted FEV1 | Change From Baseline in Percent Predicted Forced Expiratory Volume in 1 Second (FEV1), Mean (Standard Deviation) (lung function [1]; Cohort 3: 400 mg QD, Cycle 21, Day 1): −10.0 (19.8) percent predicted FEV1 | Change From Baseline in Percent Predicted Forced Expiratory Volume in 1 Second (FEV1), Mean (Standard Deviation) (lung function [1]; Cohort 3: 400 mg QD, Cycle 22, Day 1): −6.0 (17.0) percent predicted FEV1 | Change From Baseline in Percent Predicted Forced Expiratory Volume in 1 Second (FEV1), Mean (Standard Deviation) (lung function [1]; Cohort 3: 400 mg QD, Cycle 23, Day 1): −4.8 (11.2) percent predicted FEV1 | Change From Baseline in Percent Predicted Forced Expiratory Volume in 1 Second (FEV1), Mean (Standard Deviation) (lung function [1]; Cohort 3: 400 mg QD, Cycle 24, Day 1): −19.0 (—) percent predicted FEV1 | Change From Baseline in Percent Predicted Total Lung Capacity (TLC) (lung function [2]; [4]): −7.0 (—) Percent Predicted TLC | Change From Baseline in Percent Predicted Total Lung Capacity (TLC) (lung function [2]; [5]): 2.0 (—) Percent Predicted TLC | Change From Baseline in Percent Predicted Total Lung Capacity (TLC) (lung function [2]; [6]): 24.0 (28.3) Percent Predicted TLC | Change From Baseline in Percent Predicted Total Lung Capacity (TLC) (lung function [2]; [7]): 0.0 (—) Percent Predicted TLC | Change From Baseline in Percent Predicted Total Lung Capacity (TLC) (lung function [2]; [8]): 38.0 (—) Percent Predicted TLC | Change From Baseline in Percent Predicted Total Lung Capacity (TLC) (lung function [2]; [9]): 33.0 (—) Percent Predicted TLC | Change From Baseline in Percent Predicted Total Lung Capacity (TLC) (lung function [2]; [10]): 19.0 (—) Percent Predicted TLC | Change From Baseline in Percent Predicted Total Lung Capacity (TLC) (lung function [2]; [11]): −41.0 (—) Percent Predicted TLC | Change From Baseline in Percent Predicted Total Lung Capacity (TLC) (lung function [2]; [12]): −30.0 (21.2) Percent Predicted TLC | Change From Baseline in Percent Predicted Total Lung Capacity (TLC) (lung function [2]; [13]): −16.0 (—) Percent Predicted TLC | Change From Baseline in Percent Predicted Total Lung Capacity (TLC) (lung function [2]; [14]): 23.0 (—) Percent Predicted TLC | Change From Baseline in Percent Predicted Total Lung Capacity (TLC) (lung function [2]; [15]): 21.0 (—) Percent Predicted TLC | Change From Baseline in Percent Predicted Total Lung Capacity (TLC) (lung function [2]; [16]): 25.0 (—) Percent Predicted TLC | Change From Baseline in Percent Predicted Forced Vital Capacity (FVC) (lung function [3]; [4]): 7.0 (—) percent predicted FVC | Change From Baseline in Percent Predicted Forced Vital Capacity (FVC) (lung function [3]; [5]): 2.0 (—) percent predicted FVC | Change From Baseline in Percent Predicted Forced Vital Capacity (FVC) (lung function [3]; [6]): 12.5 (0.7) percent predicted FVC | Change From Baseline in Percent Predicted Forced Vital Capacity (FVC) (lung function [3]; [7]): 3.0 (—) percent predicted FVC | Change From Baseline in Percent Predicted Forced Vital Capacity (FVC) (lung function [3]; [8]): 15.0 (—) percent predicted FVC | Change From Baseline in Percent Predicted Forced Vital Capacity (FVC) (lung function [3]; [9]): 17.0 (—) percent predicted FVC | Change From Baseline in Percent Predicted Forced Vital Capacity (FVC) (lung function [3]; [10]): 5.0 (—) percent predicted FVC | Change From Baseline in Percent Predicted Forced Vital Capacity (FVC) (lung function [3]; [11]): −24.0 (—) percent predicted FVC | Change From Baseline in Percent Predicted Forced Vital Capacity (FVC) (lung function [3]; [12]): −20.5 (12.0) percent predicted FVC | Change From Baseline in Percent Predicted Forced Vital Capacity (FVC) (lung function [3]; [13]): −18.0 (—) percent predicted FVC | Change From Baseline in Percent Predicted Forced Vital Capacity (FVC) (lung function [3]; [14]): −1.0 (—) percent predicted FVC | Change From Baseline in Percent Predicted Forced Vital Capacity (FVC) (lung function [3]; [15]): −4.0 (—) percent predicted FVC | Change From Baseline in Percent Predicted Forced Vital Capacity (FVC) (lung function [3]; [16]): −2.0 (—) percent predicted FVC
